Laboratory results published in PMC8745740.
No constants are given. Whether binding was seen depends on the method and setting. In cells and extracts the contact can be indirect. A result given as binding can be weak or reduced; the word gives no strength. Tags and fused reporters may be left off the sequences shown.

Target: T1, HopAU1-GFP fusion protein (Pseudomonas syringae pv. actinidiae strain M228) (UniProt G9I6Y2)
T1 sequence: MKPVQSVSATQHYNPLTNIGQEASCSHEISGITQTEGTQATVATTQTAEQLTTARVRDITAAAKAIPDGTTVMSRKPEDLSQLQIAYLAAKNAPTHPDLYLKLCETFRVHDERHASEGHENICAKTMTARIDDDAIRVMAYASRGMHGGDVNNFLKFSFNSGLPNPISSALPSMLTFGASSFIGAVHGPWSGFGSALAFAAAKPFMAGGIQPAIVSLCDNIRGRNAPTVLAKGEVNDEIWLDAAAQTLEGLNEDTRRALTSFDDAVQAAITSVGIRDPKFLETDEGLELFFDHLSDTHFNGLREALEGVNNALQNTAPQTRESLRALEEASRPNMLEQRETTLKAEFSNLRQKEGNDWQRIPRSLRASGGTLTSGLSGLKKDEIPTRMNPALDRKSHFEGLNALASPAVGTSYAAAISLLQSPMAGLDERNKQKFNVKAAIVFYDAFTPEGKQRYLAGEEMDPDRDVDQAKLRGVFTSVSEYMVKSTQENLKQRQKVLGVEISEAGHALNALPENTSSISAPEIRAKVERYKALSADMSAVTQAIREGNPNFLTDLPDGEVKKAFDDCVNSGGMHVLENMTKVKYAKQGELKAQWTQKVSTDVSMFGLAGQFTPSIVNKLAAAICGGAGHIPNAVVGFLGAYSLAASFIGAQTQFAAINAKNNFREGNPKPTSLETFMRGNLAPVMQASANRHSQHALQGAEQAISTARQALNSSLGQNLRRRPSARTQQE
Assay: co-IP; HopAU1-GFP and CaS-mCherry transiently co-expressed in N. benthamiana, total protein extracted after 2 days; incubated with anti-GFP magnetic beads (GFP-Trap, ChromoTek) for 2 h at 4 °C; western blot with anti-GFP and anti-mCherry

## AcCaS (homologue of the calcium sensing receptor in kiwifruit)
  binding: binds
